Results reported in PMC4963535 (Nature Communications, 2016).

Test: general procedure: Fmoc solid-phase peptide synthesis; PyBOP, HOBt, DIPEA (1a-d); HATU, DIPEA (2a-d, 3a-d); microwave
Details: whole synthesis

For “[1-(4'-{4-[4-({(3R,5S)-5-[(3-chloro-5-ethyl-6-hydroxy-2-methoxybenzamido)methyl]-1-ethylpyrrolidin-3-yl}oxy)butyl]-1H-1,2,3-triazol-1-yl}-(1,1'-biphenyl)-4-yl)-1-carboxamido-[bis-(4,7,10,13,16,19-hexaoxaheneicosanoylamido)]]-L-arginyl-L-arginyl-L-prolyl-L-tyrosyl-L-isoleucyl-L-leucine”, the “final HPLC purity” value (System S1D) was 98.8% and the “final HPLC purity” value (System S2D) was 98.6%.

For “{1-[4'-(4-{4-[4-(2-methoxyphenyl)piperazin-1-yl]butyl}-1H-1,2,3-triazol-1-yl)-(1,1'-biphenyl)-4-yl]-1-carboxamido-(4,7,10,13,16,19-hexaoxaheneicosanoylamido)}-L-arginyl-L-arginyl-L-prolyl-L-tyrosyl-L-isoleucyl-L-leucine”, the “final HPLC purity” value (system S1A) was greater than 99%.

For “{1-[4'-(4-{4-[4-(2-methoxyphenyl)piperazin-1-yl]butyl}-1H-1,2,3-triazol-1-yl)-(1,1'-biphenyl)-4-yl]-1-carboxamido-[bis-(4,7,10,13,16,19-hexaoxaheneicosanoylamido)]}-L-arginyl-L-arginyl-L-prolyl-L-tyrosyl-L-isoleucyl-L-leucine”, the “final HPLC purity” value (system S1A) was greater than 99%.

With “{1-[4'-(4-{4-[4-(2-methoxyphenyl)piperazin-1-yl]butyl}-1H-1,2,3-triazol-1-yl)-(1,1'-biphenyl)-4-yl]-1-carboxamido-[tetrakis-(4,7,10,13,16,19-hexaoxaheneicosanoylamido)]}-L-arginyl-L-arginyl-L-prolyl-L-tyrosyl-L-isoleucyl-L-leucine” the “final HPLC purity” value (system S1C) was greater than 99%.

In the case of “{1-[4'-(4-{4-[4-(2-methoxyphenyl)piperazin-1-yl]butyl}-1H-1,2,3-triazol-1-yl)-(1,1'-biphenyl)-4-yl]-1-carboxamido-[tris-(4,7,10,13,16,19-hexaoxaheneicosanoylamido)]}-L-arginyl-L-arginyl-L-prolyl-L-tyrosyl-L-isoleucyl-L-leucine”, the “final HPLC purity” value (system S1B) is reported as greater than 99%.

With “{1-[4'-(4-{4-[(2,3-dihydro-1H-inden-2-yl)(propyl)amino]butyl}-1H-1,2,3-triazol-1-yl)-(1,1'-biphenyl)-4-yl]-1-carboxamido-(4,7,10,13,16,19-hexaoxaheneicosanoylamido)}-L-arginyl-L-arginyl-L-prolyl-L-tyrosyl-L-isoleucyl-L-leucine” the “final HPLC purity” value (system S1A) was greater than 99%.

For “{1-[4'-(4-{4-[(2,3-dihydro-1H-inden-2-yl)(propyl)amino]butyl}-1H-1,2,3-triazol-1-yl)-(1,1'-biphenyl)-4-yl]-1-carboxamido-[bis-(4,7,10,13,16,19-hexaoxaheneicosanoylamido)]}-L-arginyl-L-arginyl-L-prolyl-N-[2-(4-hydroxyphenyl)ethyl]glycine-L-isoleucyl-L-leucine”, the “final HPLC purity” value (system S1A) was greater than 99%.

In the case of “{1-[4'-(4-{4-[(2,3-dihydro-1H-inden-2-yl)(propyl)amino]butyl}-1H-1,2,3-triazol-1-yl)-(1,1'-biphenyl)-4-yl]-1-carboxamido-[tetrakis-(4,7,10,13,16,19-hexaoxaheneicosanoylamido)]}-L-arginyl-L-arginyl-L-prolyl-L-tyrosyl-L-isoleucyl-L-leucine”, the “final HPLC purity” value (system S1C) is reported as 98%.
